Reference: paper PMC5558016
Positions count from the first letter of the chain named. No constants are given. Whether binding was seen depends on the method and setting. For some of these results: In cells and extracts the contact can be indirect. Some entries that bind do so weakly or less than the wild type. For some of these results: Sequences can lack the tags named with a protein.

T1: GST-RTTN-N (1–889) recombinant protein (human) (UniProt Q86VV8)
T1 sequence: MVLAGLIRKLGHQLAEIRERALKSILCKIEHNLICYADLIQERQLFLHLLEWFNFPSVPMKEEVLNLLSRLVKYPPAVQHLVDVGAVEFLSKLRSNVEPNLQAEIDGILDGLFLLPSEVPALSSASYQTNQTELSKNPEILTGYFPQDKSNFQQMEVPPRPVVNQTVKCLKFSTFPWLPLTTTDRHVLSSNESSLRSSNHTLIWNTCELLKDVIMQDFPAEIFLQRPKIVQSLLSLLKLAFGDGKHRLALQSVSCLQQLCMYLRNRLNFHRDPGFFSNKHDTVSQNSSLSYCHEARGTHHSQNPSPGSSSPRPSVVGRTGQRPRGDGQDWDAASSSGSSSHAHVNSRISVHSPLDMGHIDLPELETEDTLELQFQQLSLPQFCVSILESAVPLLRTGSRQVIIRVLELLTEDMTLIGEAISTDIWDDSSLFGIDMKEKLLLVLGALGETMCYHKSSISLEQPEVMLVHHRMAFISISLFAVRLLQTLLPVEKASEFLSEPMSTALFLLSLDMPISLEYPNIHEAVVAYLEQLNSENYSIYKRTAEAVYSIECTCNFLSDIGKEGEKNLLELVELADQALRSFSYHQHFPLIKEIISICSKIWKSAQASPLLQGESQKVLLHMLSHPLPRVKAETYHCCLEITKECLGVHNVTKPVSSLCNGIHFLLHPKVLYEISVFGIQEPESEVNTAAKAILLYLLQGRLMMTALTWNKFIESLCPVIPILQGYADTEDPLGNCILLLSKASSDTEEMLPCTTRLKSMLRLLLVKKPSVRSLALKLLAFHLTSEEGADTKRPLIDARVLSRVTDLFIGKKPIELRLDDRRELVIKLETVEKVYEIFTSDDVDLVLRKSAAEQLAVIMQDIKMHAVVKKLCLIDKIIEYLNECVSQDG

T2: RTTN-N (aa 1–889), yeast two-hybrid bait, wild type (human) (UniProt Q86VV8)
T2 sequence: T1 sequence

T3: RTTN-N-A578P, yeast two-hybrid bait (human) (UniProt Q86VV8)
T3 sequence: T1 sequence with A578P

B1: Flag-tagged STIL (aa 1–628) (domain or fragment, UniProt Q15468-2 1-628)
chain: MEPIYPFARPQMNTRFPSSRMVPFHFPPSKCALWNPTPTGDFIYLHLSYYRNPKLVVTEKTIRLAYRHAKQNKKNSSCFLLGSLTADEDEEGVTLTVDRFDPGREVPECLEITPTASLPGDFLIPCKVHTQELCSREMIVHSVDDFSSALKALQCHICSKDSLDCGKLLSLRVHITSRESLDSVEFDLHWAAVTLANNFKCTPVKPIPIIPTALARNLSSNLNISQVQGTYKYGYLTMDETRKLLLLLESDPKVYSLPLVGIWLSGITHIYSPQVWACCLRYIFNSSVQERVFSESGNFIIVLYSMTHKEPEFYECFPCDGKIPDFRFQLLTSKETLHLFKNVEPPDKNPIRCELSAESQNAETEFFSKASKNFSIKRSSQKLSSGKMPIHDHDSGVEDEDFSPRPIPSPHPVSQKISKIQPSVPELSLVLDGNFIESNPLPTPLEMVNNENPPLINHLEHLKPLQPQLYDEKHSPEVEAGEPSLRGIPNQLNQDKPALLRHCKVRQPPAYKKGNPHTRNSIKPSSHNGPSHDIFEKLQTVSAGNVQNEEYPIRPSTLNSRQSSLAPQSQPHDFVFSPHNSGRPMELQIPTPPLPSYCSTNVCRCCQHHSHIQYSPLNSWQGANTVGS
B2: Flag-tagged STIL (aa 1–781) (domain or fragment, UniProt Q15468-2 1-781)
chain: MEPIYPFARPQMNTRFPSSRMVPFHFPPSKCALWNPTPTGDFIYLHLSYYRNPKLVVTEKTIRLAYRHAKQNKKNSSCFLLGSLTADEDEEGVTLTVDRFDPGREVPECLEITPTASLPGDFLIPCKVHTQELCSREMIVHSVDDFSSALKALQCHICSKDSLDCGKLLSLRVHITSRESLDSVEFDLHWAAVTLANNFKCTPVKPIPIIPTALARNLSSNLNISQVQGTYKYGYLTMDETRKLLLLLESDPKVYSLPLVGIWLSGITHIYSPQVWACCLRYIFNSSVQERVFSESGNFIIVLYSMTHKEPEFYECFPCDGKIPDFRFQLLTSKETLHLFKNVEPPDKNPIRCELSAESQNAETEFFSKASKNFSIKRSSQKLSSGKMPIHDHDSGVEDEDFSPRPIPSPHPVSQKISKIQPSVPELSLVLDGNFIESNPLPTPLEMVNNENPPLINHLEHLKPLQPQLYDEKHSPEVEAGEPSLRGIPNQLNQDKPALLRHCKVRQPPAYKKGNPHTRNSIKPSSHNGPSHDIFEKLQTVSAGNVQNEEYPIRPSTLNSRQSSLAPQSQPHDFVFSPHNSGRPMELQIPTPPLPSYCSTNVCRCCQHHSHIQYSPLNSWQGANTVGSIQDVQSEALQKHSLFHPSGCPALYCNAFCSSSSPIALRPQGDMGSCSPHSNIEPSPVARPPSHMDLCNPQPCTVCMHTPKTESDNGMMGLSPDAYRFLTEQDRQLRLLQAQIQRLLEAQSLMPCSPKTTAVEDTVQAGRQMELVSVEAQSSPG
B3: truncated STIL (1–628), yeast two-hybrid prey (domain or fragment, UniProt Q15468-2 1-628)
chain: B1 chain
B4: Flag-tagged STIL (aa 420–781) (domain or fragment, UniProt Q15468-2 420-781)
chain: IQPSVPELSLVLDGNFIESNPLPTPLEMVNNENPPLINHLEHLKPLQPQLYDEKHSPEVEAGEPSLRGIPNQLNQDKPALLRHCKVRQPPAYKKGNPHTRNSIKPSSHNGPSHDIFEKLQTVSAGNVQNEEYPIRPSTLNSRQSSLAPQSQPHDFVFSPHNSGRPMELQIPTPPLPSYCSTNVCRCCQHHSHIQYSPLNSWQGANTVGSIQDVQSEALQKHSLFHPSGCPALYCNAFCSSSSPIALRPQGDMGSCSPHSNIEPSPVARPPSHMDLCNPQPCTVCMHTPKTESDNGMMGLSPDAYRFLTEQDRQLRLLQAQIQRLLEAQSLMPCSPKTTAVEDTVQAGRQMELVSVEAQSSPG
B5: Flag-tagged STIL (aa 620–1288) (domain or fragment, UniProt Q15468-2 620-1288)
chain: WQGANTVGSIQDVQSEALQKHSLFHPSGCPALYCNAFCSSSSPIALRPQGDMGSCSPHSNIEPSPVARPPSHMDLCNPQPCTVCMHTPKTESDNGMMGLSPDAYRFLTEQDRQLRLLQAQIQRLLEAQSLMPCSPKTTAVEDTVQAGRQMELVSVEAQSSPGLHMRKGVSIAVSTGASLFWNAAGEDQEPDSQMKQDDTKISSEDMNFSVDINNEVTSLPGSASSLKAVDIPSFEESNIAVEEEFNQPLSVSNSSSLVVRKEPDVPVFFPSGQLAESVSMCLQTGPTGGASNNSETSEEPKIEHVMQPLLHQPSDNQKIYQDLLGQVNHLLNSSSKETEQPSTKAVIISHECTRTQNVYHTKKKTHHSRLVDKDCVLNATLKQLRSLGVKIDSPTKVKKNAHNVDHASVLACISPEAVISGLNCMSFANVGMSGLSPNGVDLSMEANAIALKYLNENQLSQLSVTRSNQNNCDPFSLLHINTDRSTVGLSLISPNNMSFATKKYMKRYGLLQSSDNSEDEEEPPDNADSKSEYLLNQNLRSIPEQLGGQKEPSKNDHEIINCSNCESVGTNADTPVLRNITNEVLQTKAKQQLTEKPAFLVKNLKPSPAVNLRTGKAEFTQHPEKENEGDITIFPESLQPSETLKQMNSMNSVGTFLDVKRLRQLPKLF

How the values were obtained:
[1] = biological target: T1, GST-RTTN-N (1–889) recombinant protein (human); assay: pull-down; GST-RTTN-N immobilised on glutathione-agarose beads, incubated with lysates of HEK293T cells transfected with Flag-STIL constructs, 4 °C for 3 h, washed with NP-40 lysis buffer, western blot; only the target purified
[2] = biological target: T2, RTTN-N (aa 1–889), yeast two-hybrid bait, wild type (human); assay: two-hybrid; Matchmaker Gold; RTTN in pGBKT7 as bait, STIL in pGADT7 as prey; growth of mating colonies on QDO plates at 30 °C
[3] = biological target: T3, RTTN-N-A578P, yeast two-hybrid bait (human); assay: two-hybrid; Matchmaker Gold; RTTN-N bait, STIL prey; liquid β-galactosidase assay with ONPG, diploids grown in DDO medium; relative to STIL (1–628) with RTTN-N (WT) set to 100%
[4] = biological target: T2, RTTN-N (aa 1–889), yeast two-hybrid bait, wild type (human); assay: as above

| Binder | binding [1] | binding [2] | binding [3] | binding [4] |
| --- | --- | --- | --- | --- |
| B1 | binds | – | – | – |
| B2 | binds | – | – | – |
| B3 | – | binds | binds weakly | binds |
| B4 | no binding | – | – | – |
| B5 | no binding | – | – | – |
